Measurements from paper doi:10.1101/453811.

Molecular target: T1, Dsn1-6His-3Flag (S. cerevisiae) (UniProt P40568)
T1 sequence: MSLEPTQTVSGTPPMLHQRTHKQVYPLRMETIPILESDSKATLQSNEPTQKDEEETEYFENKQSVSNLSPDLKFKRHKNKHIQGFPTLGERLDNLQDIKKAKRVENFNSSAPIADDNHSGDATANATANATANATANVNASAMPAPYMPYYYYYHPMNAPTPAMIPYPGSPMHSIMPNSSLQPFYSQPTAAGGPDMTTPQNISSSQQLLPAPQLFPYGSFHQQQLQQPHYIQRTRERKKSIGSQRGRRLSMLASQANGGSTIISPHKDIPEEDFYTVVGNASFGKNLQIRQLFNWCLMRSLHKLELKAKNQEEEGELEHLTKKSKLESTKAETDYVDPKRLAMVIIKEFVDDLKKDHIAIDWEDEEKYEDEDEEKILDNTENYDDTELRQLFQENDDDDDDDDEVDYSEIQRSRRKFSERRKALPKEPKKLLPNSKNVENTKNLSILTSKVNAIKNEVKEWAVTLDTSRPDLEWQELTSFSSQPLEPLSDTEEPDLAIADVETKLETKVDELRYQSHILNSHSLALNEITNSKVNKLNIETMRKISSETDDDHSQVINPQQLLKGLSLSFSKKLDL
Assay: co-IP

binding: binds
Substance: Stu2^TOG1Δ-3V5 (stu2(Δ2-281)-3V5) (S. cerevisiae) (domain or fragment)

These are yes or no findings as the source states them, for the method shown. In cells and extracts the contact can be indirect. Binding can be weak; no strength is given. Where a sequence is shown, tags or fusion partners need not be part of it.
